Source: the supplement of paper PMC10849652
The list shows a part of the results.

Sequences of proteins named here, by UniProt entry; tags and fusion partners are left off. A change or cut given only in a name is not applied to a line headed by its entry.
UniProt P78345: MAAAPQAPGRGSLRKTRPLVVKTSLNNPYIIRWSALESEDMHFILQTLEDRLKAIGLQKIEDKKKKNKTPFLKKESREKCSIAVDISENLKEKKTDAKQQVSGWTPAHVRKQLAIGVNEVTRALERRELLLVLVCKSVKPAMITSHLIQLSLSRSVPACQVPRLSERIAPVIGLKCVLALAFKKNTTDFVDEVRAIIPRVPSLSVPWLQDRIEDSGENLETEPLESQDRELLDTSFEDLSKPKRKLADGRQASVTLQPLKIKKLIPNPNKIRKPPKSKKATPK
UniProt O75116: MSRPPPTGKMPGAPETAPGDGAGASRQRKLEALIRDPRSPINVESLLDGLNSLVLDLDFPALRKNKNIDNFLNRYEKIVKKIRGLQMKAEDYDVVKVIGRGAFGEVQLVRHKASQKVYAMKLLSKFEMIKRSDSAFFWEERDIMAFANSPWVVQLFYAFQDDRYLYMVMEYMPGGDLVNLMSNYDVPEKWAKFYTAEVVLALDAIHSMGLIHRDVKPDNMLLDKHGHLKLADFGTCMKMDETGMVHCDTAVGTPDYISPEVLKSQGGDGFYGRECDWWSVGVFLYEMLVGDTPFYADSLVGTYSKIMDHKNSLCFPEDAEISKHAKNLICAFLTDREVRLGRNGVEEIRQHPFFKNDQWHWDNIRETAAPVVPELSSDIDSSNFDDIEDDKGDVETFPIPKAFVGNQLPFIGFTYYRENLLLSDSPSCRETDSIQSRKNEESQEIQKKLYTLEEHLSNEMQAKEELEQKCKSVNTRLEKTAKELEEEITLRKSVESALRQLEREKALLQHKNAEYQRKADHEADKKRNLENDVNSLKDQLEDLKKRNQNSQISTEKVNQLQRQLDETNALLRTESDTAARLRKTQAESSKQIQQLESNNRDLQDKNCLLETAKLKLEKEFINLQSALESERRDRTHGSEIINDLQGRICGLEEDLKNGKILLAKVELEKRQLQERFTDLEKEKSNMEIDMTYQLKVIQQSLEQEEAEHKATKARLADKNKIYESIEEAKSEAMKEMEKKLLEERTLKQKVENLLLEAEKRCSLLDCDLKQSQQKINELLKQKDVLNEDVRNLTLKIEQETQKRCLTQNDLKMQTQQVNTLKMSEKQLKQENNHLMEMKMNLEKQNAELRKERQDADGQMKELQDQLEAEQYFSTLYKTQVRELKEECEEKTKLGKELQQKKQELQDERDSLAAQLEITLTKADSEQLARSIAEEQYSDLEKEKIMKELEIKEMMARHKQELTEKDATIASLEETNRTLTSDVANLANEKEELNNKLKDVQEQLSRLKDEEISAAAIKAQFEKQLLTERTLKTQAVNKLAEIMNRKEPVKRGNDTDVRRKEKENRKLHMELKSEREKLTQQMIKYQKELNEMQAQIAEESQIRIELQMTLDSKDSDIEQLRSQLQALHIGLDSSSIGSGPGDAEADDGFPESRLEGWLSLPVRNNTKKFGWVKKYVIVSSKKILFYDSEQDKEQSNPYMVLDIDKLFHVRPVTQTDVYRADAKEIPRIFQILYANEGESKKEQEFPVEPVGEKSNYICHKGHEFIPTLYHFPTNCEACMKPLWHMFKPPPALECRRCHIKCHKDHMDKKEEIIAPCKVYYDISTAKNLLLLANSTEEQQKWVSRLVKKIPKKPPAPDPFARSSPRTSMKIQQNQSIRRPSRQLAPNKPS
UniProt P23443: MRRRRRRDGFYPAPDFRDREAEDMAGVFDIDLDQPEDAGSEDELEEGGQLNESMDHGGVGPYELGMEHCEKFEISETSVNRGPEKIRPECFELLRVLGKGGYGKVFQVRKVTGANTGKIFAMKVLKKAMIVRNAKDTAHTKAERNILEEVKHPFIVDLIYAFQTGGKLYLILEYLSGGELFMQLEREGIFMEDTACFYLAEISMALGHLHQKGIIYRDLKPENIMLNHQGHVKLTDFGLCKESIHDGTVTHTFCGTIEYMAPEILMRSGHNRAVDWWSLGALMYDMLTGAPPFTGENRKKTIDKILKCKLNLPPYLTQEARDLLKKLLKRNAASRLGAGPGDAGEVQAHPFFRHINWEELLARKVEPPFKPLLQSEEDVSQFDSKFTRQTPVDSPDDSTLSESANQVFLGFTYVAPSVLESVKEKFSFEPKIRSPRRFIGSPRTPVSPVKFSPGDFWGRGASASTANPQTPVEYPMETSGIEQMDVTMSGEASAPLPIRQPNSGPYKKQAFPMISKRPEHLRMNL
UniProt P78346: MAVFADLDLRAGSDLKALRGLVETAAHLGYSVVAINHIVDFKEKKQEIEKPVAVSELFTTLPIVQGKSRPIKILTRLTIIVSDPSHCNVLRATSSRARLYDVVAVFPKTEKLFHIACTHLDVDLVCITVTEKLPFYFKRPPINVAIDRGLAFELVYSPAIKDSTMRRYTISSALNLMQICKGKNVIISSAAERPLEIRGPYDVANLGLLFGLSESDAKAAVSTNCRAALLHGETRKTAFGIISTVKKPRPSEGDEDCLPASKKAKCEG
UniProt Q9P2E9: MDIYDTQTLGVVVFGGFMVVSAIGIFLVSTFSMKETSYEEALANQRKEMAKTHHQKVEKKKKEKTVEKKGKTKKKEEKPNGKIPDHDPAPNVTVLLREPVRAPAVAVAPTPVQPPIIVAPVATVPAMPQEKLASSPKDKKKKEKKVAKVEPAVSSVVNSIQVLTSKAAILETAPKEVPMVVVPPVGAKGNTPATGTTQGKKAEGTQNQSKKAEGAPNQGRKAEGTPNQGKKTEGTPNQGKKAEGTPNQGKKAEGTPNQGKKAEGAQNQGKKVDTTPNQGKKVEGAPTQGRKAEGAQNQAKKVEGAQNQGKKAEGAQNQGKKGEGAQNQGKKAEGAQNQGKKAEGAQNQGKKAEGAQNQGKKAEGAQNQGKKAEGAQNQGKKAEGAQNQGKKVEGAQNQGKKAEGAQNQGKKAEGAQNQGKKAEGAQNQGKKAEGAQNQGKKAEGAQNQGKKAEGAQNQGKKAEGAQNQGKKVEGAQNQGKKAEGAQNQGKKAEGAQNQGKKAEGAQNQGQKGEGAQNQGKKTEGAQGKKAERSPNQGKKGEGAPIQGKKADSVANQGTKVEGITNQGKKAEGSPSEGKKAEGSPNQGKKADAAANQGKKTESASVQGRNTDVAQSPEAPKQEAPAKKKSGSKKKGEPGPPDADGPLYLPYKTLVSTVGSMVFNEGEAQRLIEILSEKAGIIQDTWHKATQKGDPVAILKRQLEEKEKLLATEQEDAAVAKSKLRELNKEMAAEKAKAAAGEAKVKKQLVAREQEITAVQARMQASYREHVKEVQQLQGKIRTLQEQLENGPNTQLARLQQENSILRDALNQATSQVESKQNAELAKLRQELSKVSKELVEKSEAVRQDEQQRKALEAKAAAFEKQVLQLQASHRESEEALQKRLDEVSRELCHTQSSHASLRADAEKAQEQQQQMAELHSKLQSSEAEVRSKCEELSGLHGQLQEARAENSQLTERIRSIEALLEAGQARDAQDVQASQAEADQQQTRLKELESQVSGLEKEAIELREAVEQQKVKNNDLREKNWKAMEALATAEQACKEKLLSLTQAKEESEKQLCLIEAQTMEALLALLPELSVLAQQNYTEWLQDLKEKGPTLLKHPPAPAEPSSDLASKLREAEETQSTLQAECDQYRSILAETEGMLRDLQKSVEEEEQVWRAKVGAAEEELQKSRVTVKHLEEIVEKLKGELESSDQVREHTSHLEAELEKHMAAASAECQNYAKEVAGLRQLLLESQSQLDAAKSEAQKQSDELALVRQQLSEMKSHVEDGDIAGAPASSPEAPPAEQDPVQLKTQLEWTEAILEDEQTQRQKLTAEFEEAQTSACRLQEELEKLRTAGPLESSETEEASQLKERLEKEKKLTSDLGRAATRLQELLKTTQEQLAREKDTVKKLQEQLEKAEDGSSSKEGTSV
UniProt P10301: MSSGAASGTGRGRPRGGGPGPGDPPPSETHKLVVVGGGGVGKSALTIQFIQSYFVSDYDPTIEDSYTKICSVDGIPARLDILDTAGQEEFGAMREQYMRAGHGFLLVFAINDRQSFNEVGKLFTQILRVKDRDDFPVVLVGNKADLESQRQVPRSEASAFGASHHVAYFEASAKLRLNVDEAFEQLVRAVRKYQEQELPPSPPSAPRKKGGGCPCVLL
UniProt Q9H633: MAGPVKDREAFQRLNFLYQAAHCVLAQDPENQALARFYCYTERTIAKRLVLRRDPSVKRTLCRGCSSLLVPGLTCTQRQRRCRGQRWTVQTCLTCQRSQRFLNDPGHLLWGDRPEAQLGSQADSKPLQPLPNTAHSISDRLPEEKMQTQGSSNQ
UniProt O75695: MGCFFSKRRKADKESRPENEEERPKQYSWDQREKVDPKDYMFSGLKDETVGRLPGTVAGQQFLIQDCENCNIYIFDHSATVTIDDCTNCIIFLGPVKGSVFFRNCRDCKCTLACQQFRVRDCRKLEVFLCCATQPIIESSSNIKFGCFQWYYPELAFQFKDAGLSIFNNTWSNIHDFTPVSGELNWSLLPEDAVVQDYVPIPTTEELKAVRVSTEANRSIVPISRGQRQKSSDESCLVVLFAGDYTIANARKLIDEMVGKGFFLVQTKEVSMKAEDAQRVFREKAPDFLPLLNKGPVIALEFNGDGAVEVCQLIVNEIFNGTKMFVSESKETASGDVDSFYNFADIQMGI
UniProt Q86WX3: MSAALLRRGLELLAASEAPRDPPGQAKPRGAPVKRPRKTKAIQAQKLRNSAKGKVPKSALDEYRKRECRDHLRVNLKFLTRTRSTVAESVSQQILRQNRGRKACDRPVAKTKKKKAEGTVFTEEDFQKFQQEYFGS

Key:
Test in all cases: log2 fold change, soluble protein after heating vs DMSO (PISA); higher = thermal stabilisation; K562 cells, 10 uM, 30 min; active = over 0.2 and 3.5 SD of the protein, either way, in both replicates (recomputed)
[1] = compound: NC(=O)Nc1cc(-c2cccc(F)c2)sc1C(=O)N[C@H]1CCCNC1
In short: (§1)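 K562 cells (2×10^6 cells/mL) were treated with 10 μM compound for 30 min, and aliquots were heated for 3 min over 48°C-58°C. Pooled aliquots were extracted in PBS with 0.5% NP-40 at 4°C, and the supernatant after 21,000xg for 90 min was measured by TMTpro 16plex LC-MS/MS with channel sums equalised. Reported thermal stability, relative to control samples and from duplicates, is a log2 fold change.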

[2] = compound: NC(=O)c1cnc(N[C@@H]2CCCC[C@@H]2N)nc1Nc1cccc(-n2nccn2)c1
In short: as §1

[3] = compound: NC1(c2ccc(-c3nc4ccn5c(=O)[nH]nc5c4cc3-c3ccccc3)cc2)CCC1
In short: as §1

[4] = compound: NCC(=O)Nc1ccc(-n2nc(C(F)(F)F)cc2-c2ccc3c(ccc4ccccc43)c2)cc1
In short: as §1

entinostat = compound: Nc1ccccc1NC(=O)c1ccc(CNC(=O)OCc2cccnc2)cc1 [entinostat]
In short: as §1

vorinostat = compound: O=C(CCCCCCC(=O)Nc1ccccc1)NO [vorinostat]
In short: as §1

citarinostat = compound: O=C(CCCCCCNC(=O)c1cnc(N(c2ccccc2)c2ccccc2Cl)nc1)NO [citarinostat]
In short: as §1

silmitasertib = compound: O=C(O)c1ccc2c(c1)nc(Nc1cccc(Cl)c1)c1ccncc12 [silmitasertib]
In short: as §1

[5] = compound: O=C1NC(=O)C(c2cnc3ccccn23)=C1c1cn2c3c(cc(F)cc13)CN(C(=O)N1CCCCC1)CC2
In short: as §1

[6] = compound: c1cc(OCCN2CCCCC2)cc(-c2n[nH]c3ccc(-c4nnc[nH]4)cc23)c1
In short: as §1

entospletinib = compound: c1cn2cc(-c3ccc4cn[nH]c4c3)nc(Nc3ccc(N4CCOCC4)cc3)c2n1 [entospletinib]
In short: as §1

Measured: log2 fold change

RPL8 (UniProt P62917)
inactive: [1] 0.16 | [2] 0.209 | [3] 0.48 | [4] 0.382 | entinostat -0.178 | vorinostat -0.033 | citarinostat -0.213 | silmitasertib 0.16 | [5] 0.312 | [6] -0.311 | entospletinib 0.08

RPS8 (UniProt P62241)
inactive: [1] 0.099 | [2] 0.117 | [3] 0.33 | [4] 0.156 | entinostat -0.052 | vorinostat 0.005 | citarinostat -0.133 | silmitasertib 0.074 | [5] 0.115 | [6] -0.227 | entospletinib 0.131

RPL36A (UniProt P83881)
inactive: [1] 0.084 | [2] 0.102 | [3] 0.394 | [4] 0.077 | entinostat -0.174 | vorinostat 0 | citarinostat -0.175 | silmitasertib 0.14 | [5] 0.343 | [6] -0.267 | entospletinib 0.015

RPS27 (UniProt P42677)
inactive: [1] 0.026 | [2] 0.036 | [3] 0.05 | [4] 0.032 | entinostat -0.053 | vorinostat 0.014 | citarinostat -0.027 | silmitasertib 0.019 | [5] 0.017 | [6] -0.143 | entospletinib 0.102

RPP38 (UniProt P78345)
inactive: [1] -0.04 | [2] -0.025 | [3] 0.047 | [4] -0.018 | entinostat 0.016 | vorinostat 0.034 | citarinostat 0.009 | silmitasertib 0.016 | [5] -0.022 | [6] -0.057 | entospletinib -0.011

ROCK2 (UniProt O75116)
inactive: [1] 0.043 | [2] -0.044 | [3] -0.106 | [4] -0.017 | entinostat 0.031 | vorinostat 0.08 | citarinostat 0.013 | silmitasertib 0.096 | [5] 0.017 | [6] 0.06

RPL18A (UniProt Q02543)
inactive: [1] 0.22 | [2] 0.291 | [3] 0.441 | [4] 0.36 | entinostat -0.094 | vorinostat -0.028 | citarinostat -0.192 | silmitasertib 0.218 | [5] 0.28 | [6] -0.312 | entospletinib 0.111

RPS6KB1 (UniProt P23443)
inactive: [1] -0.017 | [2] -0.057 | [3] 0.014 | [4] -0.059 | entinostat 0.041 | vorinostat 0.046 | citarinostat 0.051 | silmitasertib 0.018 | [5] 0.034 | [6] -0.048 | entospletinib -0.04

RPS10 (UniProt P46783)
inactive: [1] 0.047 | [2] 0.087 | [3] 0.161 | [4] 0.052 | entinostat -0.077 | vorinostat -0.004 | citarinostat -0.033 | silmitasertib -0.019 | [5] 0.072 | [6] -0.09 | entospletinib 0.077

RPL9 (UniProt P32969)
inactive: [1] 0.236 | [2] 0.22 | [3] 0.398 | [4] 0.249 | entinostat -0.076 | vorinostat -0.014 | citarinostat -0.216 | silmitasertib 0.203 | [5] 0.33 | [6] -0.383 | entospletinib 0.103

RPL10A (UniProt P62906)
inactive: [1] 0.234 | [2] 0.165 | [3] 0.449 | [4] 0.331 | entinostat -0.1 | vorinostat -0.028 | citarinostat -0.212 | silmitasertib 0.206 | [5] 0.294 | [6] -0.322 | entospletinib 0.152

RPP30 isoform 2 (UniProt P78346)
inactive: [1] 0.054 | [2] -0.037 | [3] 0.022 | [4] -0.049 | entinostat -0.041 | vorinostat -0.01 | citarinostat -0.02 | silmitasertib 0.052 | [5] 0.102 | [6] -0.112 | entospletinib 0.08

RRBP1 (UniProt Q9P2E9)
inactive: [1] 0.128 | [2] 0.132 | [3] 0.372 | [4] 0.159 | entinostat -0.092 | vorinostat -0.089 | citarinostat -0.164 | silmitasertib 0.227 | [5] 0.297 | [6] -0.195 | entospletinib 0.029

RPS6 (UniProt P62753)
inactive: [1] 0.115 | [2] 0.211 | [3] 0.299 | [4] 0.345 | entinostat -0.076 | vorinostat 0.005 | citarinostat -0.146 | silmitasertib 0.075 | [5] 0.176 | [6] -0.098 | entospletinib 0.113

Fetched one by one from above (2):
RPL9 (UniProt P32969)
inactive: [1] 0.236 | [2] 0.22 | [3] 0.398 | [4] 0.249 | entinostat -0.076 | vorinostat -0.014 | citarinostat -0.216 | silmitasertib 0.203 | [5] 0.33 | [6] -0.383 | entospletinib 0.103

RPS6KB1 (UniProt P23443)
inactive: [1] -0.017 | [2] -0.057 | [3] 0.014 | [4] -0.059 | entinostat 0.041 | vorinostat 0.046 | citarinostat 0.051 | silmitasertib 0.018 | [5] 0.034 | [6] -0.048 | entospletinib -0.04

Following part.

RPL27A (UniProt P46776)
inactive: [1] 0.141 | [2] 0.115 | [3] 0.388 | [4] 0.243 | entinostat -0.065 | vorinostat -0.068 | citarinostat -0.179 | silmitasertib 0.167 | [5] 0.204 | [6] -0.243 | entospletinib 0.198

RPL19 (UniProt P84098)
inactive: [1] 0.155 | [2] 0.152 | [3] 0.368 | [4] 0.187 | entinostat -0.08 | vorinostat 0.029 | citarinostat -0.137 | silmitasertib 0.123 | [5] 0.254 | [6] -0.193 | entospletinib 0.173

RRAS (UniProt P10301)
inactive: [1] -0.024 | [2] 0.011 | [3] 0.008 | [4] -0.024 | entinostat -0.088 | vorinostat -0.001 | citarinostat -0.002 | silmitasertib 0.043 | [5] -0.002 | [6] -0.008 | entospletinib 0

RPP21 isoform 4 (UniProt Q9H633)
inactive: [1] -0.01 | [2] -0.062 | [3] 0.039 | [4] 0.045 | entinostat 0.011 | vorinostat 0.15 | citarinostat 0.024 | silmitasertib 0.023 | [5] 0.064 | [6] -0.162 | entospletinib 0.082

RP2 (UniProt O75695)
inactive: [1] -0.114 | [2] 0.056 | [3] -0.102 | [4] -0.067 | entinostat 0.005 | vorinostat 0.095 | citarinostat -0.011 | silmitasertib 0.116 | [5] 0.038 | [6] -0.023 | entospletinib 0.025

RPL36AL (UniProt Q969Q0)
inactive: [1] 0.107 | [2] 0.223 | [3] 0.348 | [4] 0.195 | entinostat -0.048 | vorinostat -0.037 | citarinostat -0.112 | silmitasertib 0.123 | [5] 0.324 | [6] 0.035 | entospletinib 0.095

RPL26 (UniProt P61254)
inactive: [1] 0.664 | [2] 0.387 | [3] 0.389 | [4] 0.43 | entinostat 0.05 | vorinostat -0.055 | citarinostat -0.081 | silmitasertib -0.081 | [5] 0.46 | [6] 0.205 | entospletinib 0.021

RPL28 (UniProt P46779)
inactive: [1] 0.238 | [2] 0.205 | [3] 0.422 | [4] 0.275 | entinostat -0.097 | vorinostat -0.006 | citarinostat -0.208 | silmitasertib 0.151 | [5] 0.241 | [6] -0.288 | entospletinib 0.128

RPS19BP1 (UniProt Q86WX3)
inactive: [1] 0.042 | [2] 0.107 | [3] 0.176 | [4] 0.002 | entinostat 0.023 | vorinostat -0.045 | citarinostat -0.027 | silmitasertib 0.168 | [5] 0.133 | [6] -0.087 | entospletinib 0.053

RPSA (UniProt P08865)
inactive: [1] -0.018 | [2] 0.035 | [3] 0.079 | [4] -0.009 | entinostat 0.025 | vorinostat -0.02 | citarinostat -0.02 | silmitasertib -0.034 | [5] 0.026 | [6] -0.051 | entospletinib 0.042

RPL34 (UniProt P49207)
inactive: [1] 0.127 | [2] 0.18 | [3] 0.476 | [4] 0.299 | entinostat -0.152 | vorinostat -0.047 | citarinostat -0.223 | silmitasertib 0.144 | [5] 0.264 | [6] -0.384 | entospletinib 0.097
